The record followed here is PubChem BioAssay AID1347422 (Sanford-Burnham Center for Chemical Genomics, 2020).

By UniProt entry, the sequences of proteins in these tests, tags left out. Where a name states a change or a piece, a line headed by the entry shows the natural chain unless it says otherwise.
UniProt O00391: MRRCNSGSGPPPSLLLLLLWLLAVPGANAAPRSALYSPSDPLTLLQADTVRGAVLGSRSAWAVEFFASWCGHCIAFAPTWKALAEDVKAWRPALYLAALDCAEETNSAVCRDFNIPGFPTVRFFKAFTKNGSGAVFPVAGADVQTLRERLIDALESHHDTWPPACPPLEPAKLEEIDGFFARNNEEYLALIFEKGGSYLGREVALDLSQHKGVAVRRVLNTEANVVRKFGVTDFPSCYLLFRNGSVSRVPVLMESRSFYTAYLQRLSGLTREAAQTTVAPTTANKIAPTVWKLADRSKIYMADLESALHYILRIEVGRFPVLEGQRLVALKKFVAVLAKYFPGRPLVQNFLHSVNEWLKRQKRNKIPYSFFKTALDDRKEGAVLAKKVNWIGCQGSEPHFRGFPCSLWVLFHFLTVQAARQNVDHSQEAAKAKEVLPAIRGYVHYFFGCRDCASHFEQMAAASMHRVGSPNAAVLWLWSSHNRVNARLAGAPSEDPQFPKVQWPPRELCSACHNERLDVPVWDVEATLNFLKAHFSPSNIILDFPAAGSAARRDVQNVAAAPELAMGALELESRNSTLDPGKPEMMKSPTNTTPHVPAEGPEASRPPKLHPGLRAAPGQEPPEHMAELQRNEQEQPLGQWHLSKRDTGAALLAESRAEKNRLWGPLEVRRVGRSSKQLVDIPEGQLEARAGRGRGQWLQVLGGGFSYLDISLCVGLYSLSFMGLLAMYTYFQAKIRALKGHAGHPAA

Each structure is given as a SMILES string. Whole data set: some 1,000 compounds, median “thermal shift dTm” near 0.19, cut for the highest 2% near 1.7. This is one part of the list. Active and inactive are the calls of the source.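 Rule for the calls: active = mean rise in melting temperature of at least 1 degC over same-plate control wells; inactive = below that, where a call was filed.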

In this test the target is Sulfhydryl oxidase 1 (Homo sapiens) (UniProt O00391). Nature of the test: ligand-induced melting shift of human QSOX1 – biophysical, protein thermal shift, single concentration, QSOX1 inhibitor project, confirmation (AID 1347422).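 Note: dTm is compound Tm minus mean Tm of DMSO-only wells on that plate.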 The note with it: recombinant hQSOX1 thermal shift, Sypro Orange, at 25 µM, stronger effect = higher value.
For the molecule `Cc1ccc(-n2c(CCC(=O)O)ccc2-c2ccc(Br)cc2)cc1C`, the thermal shift dTm was found to be 0.16 °C. On to `COC(=O)c1cccc(-n2c(CCC(=O)O)ccc2-c2ccc(Br)cc2)c1`, for which the thermal shift dTm came out at 0.63 °C. For `Cc1cccc(-c2noc(C(=O)NCCc3ccc(F)cc3)n2)c1`, the thermal shift dTm was found to be 0.39 °C. With `COc1cccc(NC(=O)c2ccc(Cl)c(S(=O)(=O)Nc3cccc(C)c3)c2)c1`, the thermal shift dTm was 0.29 °C.

On to `O=C(NCCC1=CCCCC1)Nc1cccc(F)c1`, for which the thermal shift dTm worked out at 0.19 °C.

For the molecule `O=C(CCc1ccccc1)NC(c1ccc(Cl)cc1)c1ccc2cccnc2c1O` (configuration not stated), the thermal shift dTm amounted to 0.16 °C. Under `COc1cccc(NC(=O)c2ccc(-c3cnn(C)c3)o2)c1` stands 0.09 °C.

Take `O=C(O)CC(Cc1ccc(Cl)cc1)C(=O)Nc1ccc(I)cc1` (configuration not stated): the thermal shift dTm worked out at 0.3 °C. For `Cc1cc(C)cc(NC(=O)Nc2cnc3ccccc3c2)c1`, the thermal shift dTm was inactive: -18.3 °C. Under `CCCCNC(=O)C1CCC(C(=O)NCCCC)CC1` (configuration not stated) stands 0.04 °C; under `CN1CCN(c2ccccc2NC(=O)c2ccc(-c3cccc(Cl)c3)o2)CC1`, 0.05 °C; under `Cc1ccc(-c2n[nH]c(-c3ccncc3)n2)cc1`, 0 °C. In the case of `NC(=O)c1ccc(NC(=O)CCc2nc(-c3ccccc3Cl)no2)cc1`, the thermal shift dTm was determined as 0.19 °C.

Consider `O=C(Nc1ccc2ccccc2c1)c1ccc(-n2cnnn2)cc1`, for which the thermal shift dTm was inactive: 0 °C. On to `CSc1ccc(C2C(C#N)=C(N)Oc3cc(N(C)C)ccc32)cc1` (configuration not stated), for which the thermal shift dTm was found to be 0.11 °C.

`COc1ccc(NC(=O)NCc2ccc3[nH]c4c(c3c2)CCCC4)cc1`: the thermal shift dTm is active: 1.64 °C. With `O=C(Cc1ccc(Br)cc1)Nc1ccc2[nH]ncc2c1`, the thermal shift dTm is 0.14 °C. `CCC(=O)NC(c1ccc(Cl)cc1)c1c(O)ccc2ccccc12` (configuration not stated): the thermal shift dTm amounted to 0.33 °C.

`COc1ccc(OC)c(NC(=O)C(=S)NCCc2ccccc2)c1`: the thermal shift dTm came out at 0.16 °C. Under `CC(Oc1ccc(-c2ccccc2)cc1)C(=O)Nc1nnc(C2CCCO2)s1` (configuration not stated) stands 0.25 °C; under `Cc1cccc(C(=O)Nc2ccc(NC(=O)C(C)C)cc2O)c1`, 0.33 °C; under `FC(F)(F)c1cccc(Nc2nc(-c3ccncc3)cs2)c1`, 0.02 °C.

`CC(=O)N(CCC(c1ccc(C)cc1)c1ccco1)Cc1ccco1` (configuration not stated): the thermal shift dTm was 0.44 °C. Under `O=S(=O)(c1ccc(COc2ccc(Br)cc2)cc1)N1CCOCC1` stands 0.07 °C; under `O=C(Nc1cccc(-c2noc(/C=C/c3ccccc3)n2)c1)c1cccs1`, 0.1 °C.

In the case of `CCCc1ccc(OCCNC(=O)CCCc2c[nH]c3ccccc23)cc1`, the thermal shift dTm was 0.16 °C. Under `O=C(COc1ccccc1Cl)Nc1ccccc1NC(=O)c1ccco1` stands 0.05 °C; under `COc1ccc(-c2csc(NC(=O)c3ccc(Cl)s3)n2)cc1`, 0.05 °C.

Consider `O=C(CSc1ncn[nH]1)Nc1ccc(/C=C/c2ccccc2)cc1`, for which the thermal shift dTm is inactive: -11.4 °C. Under `CN(C(=O)Nc1ccccc1)c1ccc2c(c1)nc1n2CCOC1` stands 0.18 °C. Regarding `O=C(NCc1ccc2c(c1)OCO2)c1ccc(COc2ccc(Br)cc2)cc1`, the thermal shift dTm stood at 0.59 °C. `COc1cc(Nc2nc(-c3ccccc3)cs2)c(OC)cc1Cl`: the thermal shift dTm was inactive: -0.09 °C. Consider `CCc1nc2sc(C(=O)c3ccccc3)c(N)c2c2c1CCCC2`, for which the thermal shift dTm stood at 0.11 °C. As to `CCC(=O)Nc1cccc(NC(=S)NC(=O)c2ccco2)c1`, the thermal shift dTm is 0.04 °C. As for `CCc1ccc(C(=O)Nc2cccc(NC(=O)c3ccco3)c2)cc1`, the thermal shift dTm was active: 2.18 °C. Consider `CCc1ccc(CCC(=O)Nc2ccc(I)cc2)o1`, for which the thermal shift dTm was found to be 0.35 °C. In the case of `O=C(CCSc1nc2sc3c(c2c(=O)[nH]1)CCCC3)Nc1ccccc1`, the thermal shift dTm turned out to be 0.02 °C. Under `CCN(C(=O)Nc1ccc(Cl)cc1)c1nnc(-c2ccccc2)s1` stands 0.16 °C; under `Cc1ccc(-c2cc(-c3ccc(F)cc3)n[nH]2)c(O)c1`, active: 1.84 °C; under `CC(C)C(=O)Nc1cccc(NC(=O)/C=C/c2ccccc2)c1`, inactive: -0.08 °C. Turning to `O=c1c(Cc2cc(Cl)cc(Cl)c2O)c(O)nc2n1CCCS2`, the thermal shift dTm came out at 0.39 °C.

For the molecule `CCOc1ccc(NC(=O)Nc2cc(C)ccc2F)cc1`, the thermal shift dTm was active: 2.42 °C. Turning to `CCOc1cccc(C(=O)Nc2cccc(NC(C)=O)c2)c1`, the thermal shift dTm was 0.23 °C. Turning to `CC(=O)Nc1ccc(OCc2cccc(Br)c2)cc1`, the thermal shift dTm amounted to 0.12 °C.

As for `COc1ccc(C(=O)CSc2n[nH]c(-c3ccccc3)n2)cc1OC`, the thermal shift dTm came out at 0.2 °C. Under `O=C(O)c1ccc(-c2nc(-c3ccc(Br)cc3)c(-c3ccc(Br)cc3)[nH]2)cc1` stands 0.01 °C. As to `COc1ccc(NC(=O)Nc2cc(C(F)(F)F)ccc2F)cc1OC`, the thermal shift dTm stood at 0.94 °C. Under `OCc1ccc(OCc2ccc(I)cc2)cc1` stands 0.45 °C; under `CS(=O)(=O)c1ccc2nc(NC(=O)COc3ccc4c(c3)CCC4)sc2c1`, 0.21 °C; under `c1ccc2c(c1)oc1c(Nc3ccc4c(c3)OCCO4)ncnc12`, 0.29 °C. In the case of `CCOc1ccc(NC(=O)Nc2cnccn2)cc1`, the thermal shift dTm was determined as 0.09 °C. Under `O=C(Nc1ccc2c(c1)OCCO2)c1ccc(Br)s1` stands 0.56 °C; under `O=C(CN1C(=O)C2C3C=CC(C4CC34)C2C1=O)Nc1ccc(Br)cc1Cl` (configuration not stated), 0.03 °C. As to `O=C(COc1ccc(Cl)cc1)N(Cc1ccccc1)Cc1ccccc1`, the thermal shift dTm was 0.05 °C. As to `O=S1(=O)N=C(Nc2ccc(S(=O)(=O)N3CCCCC3)cc2)c2ccccc21`, the thermal shift dTm is 0.01 °C.

Turning to `CC(Oc1ccc(Cl)cc1Cl)C(=O)Nc1ccc(C(C)C)cc1` (configuration not stated), the thermal shift dTm was determined as 0.05 °C.

On to `Cc1ccccc1NC(=O)Nc1ccc(F)c(Cl)c1`, for which the thermal shift dTm was 0.65 °C. Under `CC(=O)c1cccc(NS(=O)(=O)c2ccc(C(=O)Nc3ccccc3)cc2)c1` stands 0.04 °C; under `Cc1ccc(O)c(-c2cc(-c3ccccc3)n[nH]2)c1`, 0.01 °C; under `CCCC1CC(C)(c2csc(Nc3cccc(C)c3)n2)OC1=O` (configuration not stated), 0.11 °C. Under `Cc1ccc(C2Nc3ccc(C(=O)O)cc3C3C=CCC32)cc1` (configuration not stated) stands 0.35 °C; under `O=C(COc1ccc(Cl)cc1)N1c2ccccc2Sc2ccccc21`, 0.16 °C.

On to `NC(=O)c1ccc(-c2ccccc2Oc2ccccc2)o1`, for which the thermal shift dTm was determined as 0.23 °C.

Consider `Cc1nc2ncccn2c1-c1csc(Nc2ccccn2)n1`, for which the thermal shift dTm amounted to 0.1 °C.

For the molecule `CCNS(=O)(=O)c1ccc(NC(=O)Nc2ccc3c(c2)OCO3)cc1`, the thermal shift dTm amounted to 0.8 °C.

In the case of `Cc1nonc1CN(C)C(=O)c1cc(COc2cccc(C(F)(F)F)c2)on1`, the thermal shift dTm is inactive: 0 °C. As to `O/N=C/c1cc(Cl)ccc1OCc1ccc(F)cc1`, the thermal shift dTm came out at 0.34 °C. Take `CC(=O)c1ccc(NC(=O)NNC(=O)Cc2ccc(Cl)c(Cl)c2)cc1`: the thermal shift dTm turned out to be 0.71 °C. Under `COc1ccc(NC(=S)c2nc3ccccc3s2)cc1` stands 0.02 °C; under `O=C(O)c1ccc(-n2[nH]c(-c3ccccc3)cc2=O)cc1`, 0.79 °C. As for `NC(=O)c1ccc(-n2c(CCC(=O)O)ccc2-c2ccc(Br)cc2)cc1`, the thermal shift dTm was 0.02 °C.

For `O=C(Nc1ccc(Cl)cc1)Nc1ccc(S(=O)(=O)Nc2ncccn2)cc1`, the thermal shift dTm is active: 1.03 °C.
